The values that follow come from PubChem BioAssay (NCATS).

This is one part of the list. These are further read-outs of the screen, such as a control signal, another cell line or another target. No call is given for them. Compounds called inactive in the main read-out are mostly missing here. Potencies come from curve fits of mixed quality, noted in brackets.

This experiment is described as follows: S16 Schwann cell PMP22 intronic element beta-lactamase assay (AID 624044). The conditions noted are these: S16 rat Schwann cells, PMP22 element beta-lactamase FRET, 24 h; measured here: 530 nm viability channel. Summed up: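 Rat S16 Schwann cells with beta-Lac driven by a PMP22 intronic element, compound-treated 24 h at 37 °C. LiveBLAzer FRET B/G read: 460 nm normalized to potassium clavulanate vs DMSO; 535 nm FRET as viability; concentration-effect curves classified.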
For `CC(C)C(=O)OCC(=O)[C@@]12OC(C3CCCCC3)O[C@@H]1CC1C3CCC4=CC(=O)C=C[C@]4(C)C3[C@@H](O)C[C@@]12C` (stereo partly specified), the AC50 (usually the concentration giving half of the maximal activity seen) is 28.2 µM [rising, single point]. Take `Cc1cc2nc3c(=O)[nH]c(=O)nc-3n(CC(O)C(O)C(O)COP(=O)(O)O)c2cc1C` (stereo unspecified): the AC50 is 15.8 µM [rising, partial curve].

Consider `O=C(/C=C/c1ccccc1)OCc1ccccc1`, for which the AC50 was 0.2 µM [falling, full curve, poor fit]. The same measure for `CC(C)(C)c1ccc(CN2CCN([C@H](c3ccccc3)c3ccc(Cl)cc3)CC2)cc1`: 2.82 µM [rising, full curve, poor fit]. The same measure for `O=C(O)[C@H](CC(=O)N1C[C@H]2CCCC[C@H]2C1)Cc1ccccc1`: 14.1 µM [falling, single point]. In the case of `CC(C)(O)c1ccccc1CC[C@H](SCC1(CC(=O)O)CC1)c1cccc(/C=C/c2ccc3ccc(Cl)cc3n2)c1`, the AC50 was 1 µM [falling, full curve].
